# Results: patent US20110294740A1
# The chains behind the UniProt entries cited, without tags or fusion partners. Residues count along the entry.
# UniProt P05067, residues 672-713: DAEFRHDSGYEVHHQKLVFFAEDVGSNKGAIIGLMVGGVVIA
# Results are given in words; binding and its absence hold for the method and conditions named. Some results given as binding are weak or reduced against the parent protein; the word gives no strength. Tags and fused reporters may be left off the sequences shown.
# B1: MBP1 (first 64 residues of MBP) (peptide)
# chain: MASQKRPSQRHGSKYLATASTMDHARHGFLRPHRDTGILDSIGRFFGGDRGAPKRGSGKDSHHP
# Target: wild-type Aβ42 peptide (UniProt P05067)
# Test: SPR
binder,measurement,value
B1,binding,binds
